Data: publication PMC10876760
Results are given in words; binding and its absence hold for the method and conditions named. In cells and extracts the contact can be indirect. Some binding calls cover weakened binding; strength is not graded here. Sequences can lack the tags named with a protein.

Chains of the proteins cited; added tags and fusions are not shown.
UniProt P53804: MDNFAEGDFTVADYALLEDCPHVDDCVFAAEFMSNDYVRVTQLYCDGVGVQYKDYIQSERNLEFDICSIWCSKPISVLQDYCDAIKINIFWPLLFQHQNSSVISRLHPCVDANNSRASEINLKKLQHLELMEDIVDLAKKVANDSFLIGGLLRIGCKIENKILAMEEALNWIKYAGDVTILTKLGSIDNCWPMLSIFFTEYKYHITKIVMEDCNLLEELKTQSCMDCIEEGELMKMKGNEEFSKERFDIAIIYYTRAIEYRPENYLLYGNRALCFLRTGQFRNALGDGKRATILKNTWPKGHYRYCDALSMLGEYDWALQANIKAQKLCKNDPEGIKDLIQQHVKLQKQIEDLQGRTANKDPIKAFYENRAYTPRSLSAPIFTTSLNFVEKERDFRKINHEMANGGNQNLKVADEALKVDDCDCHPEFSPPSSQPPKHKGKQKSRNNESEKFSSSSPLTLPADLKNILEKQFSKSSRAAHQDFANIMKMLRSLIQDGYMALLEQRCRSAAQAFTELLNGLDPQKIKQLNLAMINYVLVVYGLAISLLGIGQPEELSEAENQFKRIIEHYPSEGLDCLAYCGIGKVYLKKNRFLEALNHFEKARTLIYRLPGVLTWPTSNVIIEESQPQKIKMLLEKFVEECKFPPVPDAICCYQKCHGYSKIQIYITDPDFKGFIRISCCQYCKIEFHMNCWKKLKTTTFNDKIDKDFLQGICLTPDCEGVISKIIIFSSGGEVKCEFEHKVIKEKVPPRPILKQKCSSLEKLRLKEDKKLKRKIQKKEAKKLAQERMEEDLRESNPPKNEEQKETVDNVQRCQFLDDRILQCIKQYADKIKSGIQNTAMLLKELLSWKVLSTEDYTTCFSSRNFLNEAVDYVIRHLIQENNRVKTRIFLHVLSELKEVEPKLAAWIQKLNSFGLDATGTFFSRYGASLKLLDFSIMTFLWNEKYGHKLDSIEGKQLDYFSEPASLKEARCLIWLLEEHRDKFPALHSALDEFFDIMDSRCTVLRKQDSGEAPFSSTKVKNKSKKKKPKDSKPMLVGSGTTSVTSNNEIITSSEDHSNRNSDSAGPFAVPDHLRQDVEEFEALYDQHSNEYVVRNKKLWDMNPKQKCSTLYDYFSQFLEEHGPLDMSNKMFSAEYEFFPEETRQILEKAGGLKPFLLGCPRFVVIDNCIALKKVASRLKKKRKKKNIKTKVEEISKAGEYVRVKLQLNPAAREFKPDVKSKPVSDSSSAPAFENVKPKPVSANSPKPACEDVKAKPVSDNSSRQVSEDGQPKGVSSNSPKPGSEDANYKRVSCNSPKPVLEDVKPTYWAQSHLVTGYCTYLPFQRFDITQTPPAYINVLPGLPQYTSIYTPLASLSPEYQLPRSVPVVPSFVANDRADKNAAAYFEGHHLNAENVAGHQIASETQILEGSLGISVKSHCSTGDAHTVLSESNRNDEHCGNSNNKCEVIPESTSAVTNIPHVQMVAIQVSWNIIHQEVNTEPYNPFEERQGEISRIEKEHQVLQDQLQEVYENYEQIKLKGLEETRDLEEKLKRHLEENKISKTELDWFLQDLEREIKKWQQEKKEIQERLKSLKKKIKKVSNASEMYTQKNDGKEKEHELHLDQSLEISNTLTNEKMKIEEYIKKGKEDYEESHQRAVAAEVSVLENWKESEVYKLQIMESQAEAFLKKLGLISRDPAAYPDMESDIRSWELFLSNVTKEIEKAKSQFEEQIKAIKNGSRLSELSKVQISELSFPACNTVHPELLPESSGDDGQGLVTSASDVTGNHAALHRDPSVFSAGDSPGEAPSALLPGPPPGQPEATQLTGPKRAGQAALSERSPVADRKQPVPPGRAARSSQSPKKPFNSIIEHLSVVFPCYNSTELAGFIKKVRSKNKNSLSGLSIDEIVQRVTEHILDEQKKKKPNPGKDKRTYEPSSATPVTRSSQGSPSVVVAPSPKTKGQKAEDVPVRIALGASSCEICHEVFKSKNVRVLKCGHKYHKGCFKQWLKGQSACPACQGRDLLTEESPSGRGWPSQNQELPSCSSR

Target: HA-TTC3 (UniProt P53804)
Assay: co-IP; LX-2 cells co-transfected with Flag-KIF18A and HA-TTC3 plasmids; IP with anti-Flag or with anti-HA antibody, Western blot

B1: Flag-KIF18A (protein, UniProt Q8NI77 1-898)
chain: MSVTEEDLCHHMKVVVRVRPENTKEKAAGFHKVVHVVDKHILVFDPKQEEVSFFHGKKTTNQNVIKKQNKDLKFVFDAVFDETSTQSEVFEHTTKPILRSFLNGYNCTVLAYGATGAGKTHTMLGSADEPGVMYLTMLHLYKCMDEIKEEKICSTAVSYLEVYNEQIRDLLVNSGPLAVREDTQKGVVVHGLTLHQPKSSEEILHLLDNGNKNRTQHPTDMNATSSRSHAVFQIYLRQQDKTASINQNVRIAKMSLIDLAGSERASTSGAKGTRFVEGTNINRSLLALGNVINALADSKRKNQHIPYRNSKLTRLLKDSLGGNCQTIMIAAVSPSSVFYDDTYNTLKYANRAKDIKSSLKSNVLNVNNHITQYVKICNEQKAEILLLKEKLKAYEEQKAFTNENDQAKLMISNPQEKEIERFQEILNCLFQNREEIRQEYLKLEMLLKENELKSFYQQQCHKQIEMMCSEDKVEKATGKRDHRLAMLKTRRSYLEKRREEELKQFDENTNWLHRVEKEMGLLSQNGHIPKELKKDLHCHHLHLQNKDLKAQIRHMMDLACLQEQQHRQTEAVLNALLPTLRKQYCTLKEAGLSNAAFESDFKEIEHLVERKKVVVWADQTAEQPKQNDLPGISVLMTFPQLGPVQPIPCCSSSGGTNLVKIPTEKRTRRKLMPSPLKGQHTLKSPPSQSVQLNDSLSKELQPIVYTPEDCRKAFQNPSTVTLMKPSSFTTSFQAISSNINSDNCLKMLCEVAIPHNRRKECGQEDLDSTFTICEDIKSSKCKLPEQESLPNDNKDILQRLDPSSFSTKHSMPVPSMVPSYMAMTTAAKRKRKLTSSTSNSSLTADVNSGFAKRVRQDNSSEKHLQENKPTMEHKRNICKINPSMVRKFGRNISKGNLR
- binding: binds
